In PubChem BioAssay AID504467 (National Center for Advancing Translational Sciences (NCATS), 2011):
Among all 330,000 compounds or so, about 7,700 (2.3%) were called active. Inconclusive means that the source gave no clear call. Such entries were picked first, then a sample of the others. Calls come from the whole dose curve; as a rule, active = well fitted inhibition curve with a large enough effect; inconclusive = small, poorly fitted or top-dose-only effect, or effect the other way; inactive = flat fitted curve, though single readings scatter. A potency beside an inconclusive call is a rough fit, not a confirmed value.

Test: qHTS screen for small molecules that inhibit ELG1-dependent DNA repair in human embryonic kidney (HEK293T) cells expressing luciferase-tagged ELG1; note: nearly all actives have a fitted effect of over 55% in size
Conditions: HEK293T ELG1-luciferase reporter, luminescence, 16 h, DNA damage induced by 5-fluorouridine; activity change, negative = inhibition: at 46.1 µM (top of the series)
Summary of the method: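 Quantitative HTS, concentration-response format. 2,000 cells/well co-treated with 5-fluorouridine and compound, 16 hr in 5% CO2 at 37 °C; ONE-Glo luminescence read after 30 min.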
% is set by controls: 0 for no effect and ±100 for the full control effect; potency is the fitted concentration of half-maximal effect.

Compound	activity change, negative = inhibition	Potency
COc1ccc(C2C(C(N)=O)=C(C)Nc3nc(CCCO)nn32)cc1OC (stereo not drawn)	inactive: 5.05%	
CC(C)c1ccc(CN2CCN(C(=O)CCl)CC2)cc1	inactive: -0.214%	
COc1ccc(O)c(/C=N/NC(=S)NCCc2ccccc2)c1		inconclusive: 16.4 µM [inhibitor, partial curve, poor fit]
CCN(CC)C(=O)NCc1c(C)cc(C)cc1C	inactive: -2.57%	
CCOc1ccc(OCc2ccc(C(=O)N3CCCC(C)C3)cc2)cc1 (stereo not drawn)		inconclusive: 6.51 µM [activator, single point]
Cc1ccc(S(=O)(=O)/N=C/c2c(O)ccc3ccccc23)cc1	inactive: 13.2%	
CCCOC(=O)Nc1nnc(CCC)s1		inconclusive: 16.4 µM [activator, single point]
COCCN(Cc1cc2cc(C)c(C)cc2nc1Cl)C(=O)Nc1ccccc1		inconclusive: 8.2 µM [inhibitor, partial curve]
C=CC[C@@H](CC(=O)N(CCO)Cc1ccccc1)C(=O)N[C@@H](COC(=O)[C@@H](CC=C)Cc1ccc(F)cc1)Cc1c[nH]c2ccccc12		active: 18.3 µM
Cc1cccc(C(=O)Nc2cccc(C(=O)N/N=C/c3ccc4c(c3)OCO4)c2)c1	inactive: 25.9%	
COc1ccc(CCNC(=O)CO/N=C/c2cc3c(cc2Br)OCO3)cc1OC		inconclusive: 20.6 µM [inhibitor, single point]
CCCC(=O)NC(=S)Nc1ccccc1N1CCOCC1	inactive: -11%	
Cc1nn(-c2ccccc2)c2c1C(c1ccc(F)cc1F)C(C#N)=C(N)O2 (stereo not drawn)	inactive: 0.633%	
Cc1cc(C(=O)O)sc1C		inconclusive: 29.1 µM [inhibitor, single point]
O=S(=O)(Nc1nc2ccccc2nc1N1CCN(c2ccccc2F)CC1)c1ccc(Cl)cc1		active: 18.4 µM
COc1ccc(C(=O)NNS(=O)(=O)c2ccccc2)cc1OC	inactive: -4.77%	
O=C(NCC1CCN(C(=O)c2ccc([N+](=O)[O-])cc2)CC1)C(=O)Nc1ccccc1		inconclusive: 29.1 µM [inhibitor, single point]
CN(C)/C=C(\C#N)C(=O)N/N=C/c1ccc(F)cc1	inactive: 23.2%	
COc1ccc(C(=O)OCC(=O)Nc2ccc(F)cc2F)cc1OC		inconclusive: 25.9 µM [inhibitor, partial curve, poor fit]
COc1ccc(C2OC(=O)CC2C(=O)NCc2ccc(C)cc2)cc1OC (stereo not drawn)		inconclusive: 25.9 µM [inhibitor, partial curve, poor fit]
CCOC(=O)c1cnc2cc(-c3ccc(Br)cc3)nn2c1C		inconclusive: 20.6 µM [activator, partial curve]
CC(C)(C)c1ccc(S(=O)(=O)N2CCC(c3nc4ccc(Cl)cc4[nH]3)CC2)cc1		active: 20.6 µM
CCOC(=O)c1cc(-c2ccccc2)sc1NC(=O)COC	inactive: -11.5%	

Compound	activity change, negative = inhibition	Potency
CCn1c(=O)c2c(nc3n2CCCN3c2cccc(C)c2)n(C)c1=O		inconclusive: 9.2 µM [inhibitor, partial curve]
O=C1c2ccc(-c3ccc(Cl)c(C(F)(F)F)c3)cc2S(=O)(=O)c2cccc(C(=O)N3CCN(c4ccc(Cl)cn4)CC3)c21		inconclusive: 1.03 µM [inhibitor, partial curve, poor fit]
COC(=O)c1c(NC(=O)CN2CCOCC2)sc2c1CCC(C)C2 (stereo not drawn)		inconclusive: 3.26 µM [activator, single point]
CCOc1ccc(N2C(=O)C3C(c4ccc(O)cc4)NC(CCSC)(C(=O)OC)C3C2=O)cc1 (stereo not drawn)		inconclusive: 29.1 µM [inhibitor, single point]
S=c1[nH]nc(-c2ccccn2)n1/N=C/c1ccc(-c2ccccc2Br)o1		inconclusive: 1.16 µM [inhibitor, single point]
CC1Cc2nc(SCC(=O)Nc3nc4ccccc4s3)n(C)c(=O)c2S1 (stereo not drawn)		inconclusive: 18.4 µM [inhibitor, partial curve, poor fit]
C/C(=N/NS(=O)(=O)c1ccc(F)cc1)c1ccc(NC(=O)c2ccc(C)o2)cc1		inconclusive: 29.1 µM [activator, single point]
O=C(CCN1C(=O)NC2(CCCC2)C1=O)Nc1ccc(-c2nc3ccccc3s2)cc1		inconclusive: 0.82 µM [activator, partial curve]
O=[N+]([O-])c1ccc2[nH]c3nc4ccccc4nc3c2c1	inactive: 2.32%	
COc1ccccc1/C=N/n1c(N)c(S(=O)(=O)c2cccs2)c2nc3ccccc3nc21		inconclusive: 6.51 µM [inhibitor, partial curve, poor fit]
Fc1ccc2[nH]c3c(N4CCN(Cc5ccc6c(c5)OCO6)CC4)ncnc3c2c1		active: 13 µM
COc1ccc(-n2c(SCC(=O)N3CCN(c4ccccc4)CC3)nc3c(c2=O)SCC3)cc1		inconclusive: 23.1 µM [inhibitor, single point]
O=C(Nc1ccc(N2CCCC2)c(S(=O)(=O)Nc2cccc(C(F)(F)F)c2)c1)c1cccs1		inconclusive: 32.6 µM [inhibitor, single point]
COc1ccc(-n2c(SCC(=O)Nc3nc(C)cs3)nnc2-c2ccoc2C)cc1		active: 23.1 µM
O=C(N/N=C/c1cn(-c2ccccc2)nc1-c1cc2ccccc2o1)c1ccccc1Br		inconclusive: 2.59 µM [activator, partial curve]
CCCCn1c(N)c(N(CCC(C)C)C(=O)c2ccc(C)o2)c(=O)[nH]c1=O		inconclusive: 20 µM [activator, partial curve, poor fit]
CSCC[C@H](NC(=O)Cc1c(C)c2cc3c4c(oc3cc2oc1=O)CCCC4)C(=O)O		inconclusive: 23.1 µM [activator, single point]
CCC(=O)NC(=S)Nc1ccc(NC(=O)c2ccco2)c(Cl)c1		inconclusive: 18.3 µM [activator, partial curve, poor fit]
CCOc1ccc(S(=O)(=O)NCCC(=O)N2CCN(c3ccccc3O)CC2)cc1		inconclusive: 7.3 µM [inhibitor, partial curve, poor fit]
Cc1c(CC(=O)O)c(=O)oc2c(C)c(OCc3ccc(F)cc3Cl)ccc12		inconclusive: 32.6 µM [activator, partial curve, poor fit]
CSc1nnc(-c2ccncc2)n1/N=C/c1cn(-c2ccccc2)nc1-c1ccc(Cl)cc1		inconclusive: 4.11 µM [inhibitor, single point]
O=C(NCCCO)/C(=C\c1ccco1)NC(=O)c1ccco1		inconclusive: 5.01 µM [inhibitor, single point]
CC(C)(C)OC(=O)N1CCOCCOCCN(C(=O)OC(C)(C)C)CCOCCOCC1		inconclusive: 6.51 µM [inhibitor, partial curve, poor fit]

Compound	activity change, negative = inhibition	Potency
O=C(Nc1ccc(Cl)cc1)Nc1cccnc1		inconclusive: 18.4 µM [activator, partial curve]
Cc1c(C(=O)Nc2ccc3c(c2)OCCO3)sc2nc(-c3ccccc3)cn12		active: 13 µM
COc1cc2cnc(-c3ccccc3)c(C(=O)c3ccc(OCc4ccccc4)cc3)c2cc1OC		active: 2.59 µM
CCC(=O)Nc1ccc(C(=O)NNC(=O)c2cc(OC)c(OC)c(OC)c2)cc1		inconclusive: 20.6 µM [inhibitor, single point]
CC1=NN(C(=O)CCc2ccccc2)C(O)(c2ccncc2)C1 (stereo not drawn)	inactive: 17.8%	
Cc1cccc(N2CCN(C(=O)c3ccc4nc(-c5ccco5)c(-c5ccco5)nc4c3)CC2C)c1 (stereo not drawn)		inconclusive: 20 µM [inhibitor, partial curve, poor fit]
CCCCCC(CC(=O)NO)C(=O)NC(C(=O)N1CCCC1CO)C(C)C (stereo not drawn)	inactive: -23.7%	
Cc1cc(C)c(C)c(OCCCOc2cccc3cccnc23)c1	inactive: -14.3%	
Cc1ccc(NCC(=O)Nc2ccc(Br)cc2)cc1C		inconclusive: 16.4 µM [activator, single point]
O=C(N/N=C/c1cccs1)c1n[nH]c2c1CCCC2		inconclusive: 0.411 µM [activator, partial curve, poor fit]
CCOc1cccc(C2/C(=C(/O)c3ccc4c(c3)CC(C)O4)C(=O)C(=O)N2CCCn2ccnc2)c1 (stereo not drawn)	inactive: -0.927%	
Cc1cccc(/C=N\N=C\c2cccc(C)c2)c1		inconclusive: 17.8 µM [activator, single point]
COc1cccc(/C=C/C(=O)Nc2ccc3c(c2)OCCO3)c1		inconclusive: 2.59 µM [activator, partial curve]
O=C(NCCCCc1ccccc1)c1ccc(Br)cc1		inconclusive: 29.1 µM [activator, single point]
COC(=O)C1CCN(Cc2cn(Cc3ccccc3)nc2-c2cc3ccccc3o2)CC1		inconclusive: 29.1 µM [inhibitor, single point]
O=C(O)c1cnn2c1NC(c1cccs1)CC2C(F)(F)F (stereo not drawn)	inactive: -1.37%	
CC1CC(=O)c2cnc(Nc3ccccc3)nc2C1 (stereo not drawn)		inconclusive: 5.8 µM [activator, partial curve]
CCN1CCN(C(=S)Nc2ccc([N+](=O)[O-])cc2)CC1		inconclusive: 20.6 µM [activator, single point]
Nc1cc(Cl)nc(N/N=C/c2c(O)ccc3ccccc23)n1		inconclusive: 2.59 µM [activator, partial curve]
c1ccc(CCNc2nc(-c3ccccn3)nc3ccccc23)cc1		active: 4.11 µM
C=CCn1c(=S)[nH]c2cc(C(=O)N3CCN(c4ccccc4OC)CC3)ccc2c1=O		inconclusive: 16.4 µM [inhibitor, single point]
CCOCCCNC(=O)C(Cc1ccccc1)NS(=O)(=O)c1cccc2nsnc12 (stereo not drawn)		inconclusive: 0.651 µM [inhibitor, single point]

Some of the entries so far, in CSV form.
Compound,"activity change, negative = inhibition",Potency
Cc1c(C(=O)Nc2ccc3c(c2)OCCO3)sc2nc(-c3ccccc3)cn12,,active: 13 µM
COc1cc2cnc(-c3ccccc3)c(C(=O)c3ccc(OCc4ccccc4)cc3)c2cc1OC,,active: 2.59 µM
CCC(=O)Nc1ccc(C(=O)NNC(=O)c2cc(OC)c(OC)c(OC)c2)cc1,,"inconclusive: 20.6 µM [inhibitor, single point]"
CC1=NN(C(=O)CCc2ccccc2)C(O)(c2ccncc2)C1 (stereo not drawn),inactive: 17.8%,
Cc1cccc(N2CCN(C(=O)c3ccc4nc(-c5ccco5)c(-c5ccco5)nc4c3)CC2C)c1 (stereo not drawn),,"inconclusive: 20 µM [inhibitor, partial curve, poor fit]"
CCCCCC(CC(=O)NO)C(=O)NC(C(=O)N1CCCC1CO)C(C)C (stereo not drawn),inactive: -23.7%,
